According to patent publication US20250346575A1, “ISOINDOLINONE DERIVATIVE HAVING GLUTARIMIDE MOTHER NUCLEUS, AND USE THEREOF” (KOREA RESEARCH INSTITUTE OF CHEMICAL TECHNOLOGY, priority 2021, published 2025):
Some entries share one result that the patent states for a list of compounds.

These compounds were tested on Cancer cells (KG-1) (assay: Cytotoxicity assay, WST-1, KG-1). Settings: (6+5) bicyclic heteroaryl compared to (6+6) bicyclic heteroaryls (comparative compounds 1-3).
Assay type: cell-based
Procedure: To evaluate the effect of the compounds of the present disclosure on cancer cells, a cytotoxicity assay was conducted as follows.
Cancer cells (KG-1) were seeded at a concentration of 10,000 cells per well into a 96-well plate. Then, the cells were treated with predetermined concentrations of compounds of the Examples and comparative substances (comparative compounds 1, 2, 3). After 72 hours, the cells were incubated with WST-1 reagent for one hour. Then, absorbance was measured at 450 nm using a spectramax spectrophotometer to assess the degree of cancer cell apoptosis. The IC50 (μM) values were calculated using the measured values with the GraphPad Prism program and the measurements are summarized in Table 1.

Structure (SMILES) | cytotoxic activity against KG-1 and cancer cells (in words)
O=C1CCC(N2Cc3cc(CNC(=O)c4cc5ccccc5o4)ccc3C2=O)C(=O)N1 (stereo not shown) [Compound 56, N-((2-(2,6-Dioxopiperidin-3-yl)-1-oxoisoindolin-5-yl)methyl)benzofuran-2-carboxamide] | superior cytotoxic activity
COc1ccc2[nH]c(C(=O)NCc3ccc4c(c3)CN(C3CCC(=O)NC3=O)C4=O)cc2c1 (stereo not shown) [Compound 57, N-((2-(2,6-Dioxopiperidin-3-yl)-1-oxoisoindolin-5-yl)methyl)-5-methoxy-1H-indole-2-carboxamide] | superior cytotoxic activity
COc1ccc2sc(C(=O)NCc3ccc4c(c3)CN(C3CCC(=O)NC3=O)C4=O)cc2c1 (stereo not shown) [Compound 65, N-((2-(2,6-Dioxopiperidin-3-yl)-1-oxoisoindolin-5-yl)methyl)-5-methoxybenzo[b]thiophene-2-carboxamide] | superior cytotoxic activity
Cc1ccc2cc(C(=O)NCc3ccc4c(c3)CN(C3CCC(=O)NC3=O)C4=O)sc2c1 (stereo not shown) [Compound 66, N-((2-(2,6-Dioxopiperidin-3-yl)-1-oxoisoindolin-5-yl)methyl)-6-methylbenzo[b]thiophene-2-carboxamide] | superior cytotoxic activity
Cc1ccc2c(Cl)c(C(=O)NCc3ccc4c(c3)CN(C3CCC(=O)NC3=O)C4=O)sc2c1 (stereo not shown) [Compound 67, 3-Chloro-N-((2-(2,6-dioxopiperidin-3-yl)-1-oxoisoindolin-5-yl)methyl)-6-methylbenzo[b]thiophene-2-carboxamide] | superior cytotoxic activity
COc1ccc2c(Cl)c(C(=O)NCc3ccc4c(c3)CN(C3CCC(=O)NC3=O)C4=O)sc2c1 (stereo not shown) [Compound 68, 3-Chloro-N-((2-(2,6-dioxopiperidin-3-yl)-1-oxoisoindolin-5-yl)methyl)-6-methoxybenzo[b]thiophene-2-carboxamide] | superior cytotoxic activity
COc1cc2cc(C(=O)NCc3ccc4c(c3)CN(C3CCC(=O)NC3=O)C4=O)sc2cc1OC (stereo not shown) [Compound 69, N-((2-(2,6-Dioxopiperidin-3-yl)-1-oxoisoindolin-5-yl)methyl)-5,6-dimethoxybenzo[b]thiophene-2-carboxamide] | superior cytotoxic activity
O=C1CCC(N2Cc3cc(CNC(=O)c4cc5c(C(F)(F)F)cccc5s4)ccc3C2=O)C(=O)N1 (stereo not shown) [Compound 70, N-((2-(2,6-Dioxopiperidin-3-yl)-1-oxoisoindolin-5-yl)methyl)-4-(trifluoromethyl)benzo[b]thiophene-2-carboxamide] | superior cytotoxic activity
O=C1CCC(N2Cc3cc(CNC(=O)c4cc5cccc(C(F)(F)F)c5s4)ccc3C2=O)C(=O)N1 (stereo not shown) [Compound 71, N-((2-(2,6-Dioxopiperidin-3-yl)-1-oxoisoindolin-5-yl)methyl)-7-(trifluoromethyl)benzo[b]thiophene-2-carboxamide] | superior cytotoxic activity
O=C1CCC(N2Cc3cc(CNC(=O)c4sc5cc(C(F)(F)F)ccc5c4Cl)ccc3C2=O)C(=O)N1 (stereo not shown) [Compound 72, 3-chloro-N-((2-(2,6-dioxopiperidin-3-yl)-1-oxoisoindolin-5-yl)methyl)-6-(trifluoromethyl)benzo[b]thiophene-2-carboxamide] | superior cytotoxic activity
O=C1CCC(N2Cc3cc(CNC(=O)c4cc5cc(C(F)(F)F)ccc5s4)ccc3C2=O)C(=O)N1 (stereo not shown) [Compound 73, N-((2-(2,6-Dioxopiperidin-3-yl)-1-oxoisoindolin-5-yl)methyl)-5-(trifluoromethyl)benzo[b]thiophene-2-carboxamide] | superior cytotoxic activity
COc1cccc2sc(C(=O)NCc3ccc4c(c3)CN(C3CCC(=O)NC3=O)C4=O)cc12 (stereo not shown) [Compound 74, N-((2-(2,6-Dioxopiperidin-3-yl)-1-oxoisoindolin-5-yl)methyl)-4-methoxybenzo[b]thiophene-2-carboxamide] | superior cytotoxic activity
Cc1c(C(=O)NCc2ccc3c(c2)CN(C2CCC(=O)NC2=O)C3=O)sc2ccc(Cl)cc12 (stereo not shown) [Compound 75, 5-Chloro-N-((2-(2,6-dioxopiperidin-3-yl)-1-oxoisoindolin-5-yl)methyl)-3-methylbenzo[b]thiophene-2-carboxamide] | superior cytotoxic activity
Cc1c(C(=O)NCc2ccc3c(c2)CN(C2CCC(=O)NC2=O)C3=O)sc2ccccc12 (stereo not shown) [Compound 76, N-((2-(2,6-Dioxopiperidin-3-yl)-1-oxoisoindolin-5-yl)methyl)-3-methylbenzo[b]thiophene-2-carboxamide] | superior cytotoxic activity
Cc1c(C(=O)NCc2ccc3c(c2)CN(C2CCC(=O)NC2=O)C3=O)sc2cccc(Cl)c12 (stereo not shown) [Compound 77, 4-Chloro-N-((2-(2,6-dioxopiperidin-3-yl)-1-oxoisoindolin-5-yl)methyl)-3-methylbenzo[b]thiophene-2-carboxamide] | superior cytotoxic activity
Cc1c(C(=O)NCc2ccc3c(c2)CN(C2CCC(=O)NC2=O)C3=O)sc2c(Cl)cccc12 (stereo not shown) [Compound 78, 7-Chloro-N-((2-(2,6-dioxopiperidin-3-yl)-1-oxoisoindolin-5-yl)methyl)-3-methylbenzo[b]thiophene-2-carboxamide] | superior cytotoxic activity
Cc1c(C(=O)NCc2ccc3c(c2)CN(C2CCC(=O)NC2=O)C3=O)sc2cccc(F)c12 (stereo not shown) [Compound 79, N-((2-(2,6-Dioxopiperidin-3-yl)-1-oxoisoindolin-5-yl)methyl)-4-fluoro-3-methylbenzo[b]thiophene-2-carboxamide] | superior cytotoxic activity
Cc1c(C(=O)NCc2ccc3c(c2)CN(C2CCC(=O)NC2=O)C3=O)oc2ccccc12 (stereo not shown) [Compound 80, N-((2-(2,6-Dioxopiperidin-3-yl)-1-oxoisoindolin-5-yl)methyl)-3-methylbenzofuran-2-carboxamide] | superior cytotoxic activity
COc1ccc2oc(C(=O)NCc3ccc4c(c3)CN(C3CCC(=O)NC3=O)C4=O)cc2c1 (stereo not shown) [Compound 81, N-((2-(2,6-Dioxopiperidin-3-yl)-1-oxoisoindolin-5-yl)methyl)-5-methoxybenzofuran-2-carboxamide] | superior cytotoxic activity
COc1cccc2cc(C(=O)NCc3ccc4c(c3)CN(C3CCC(=O)NC3=O)C4=O)oc12 (stereo not shown) [Compound 82, N-((2-(2,6-Dioxopiperidin-3-yl)-1-oxoisoindolin-5-yl)methyl)-7-methoxybenzofuran-2-carboxamide] | superior cytotoxic activity
COc1ccc2cc(C(=O)NCc3ccc4c(c3)CN(C3CCC(=O)NC3=O)C4=O)oc2c1 (stereo not shown) [Compound 83, N-((2-(2,6-Dioxopiperidin-3-yl)-1-oxoisoindolin-5-yl)methyl)-6-methoxybenzofuran-2-carboxamide] | superior cytotoxic activity
Cc1ccc2c(C)c(C(=O)NCc3ccc4c(c3)CN(C3CCC(=O)NC3=O)C4=O)oc2c1 (stereo not shown) [Compound 84, N-((2-(2,6-Dioxopiperidin-3-yl)-1-oxoisoindolin-5-yl)methyl)-3,6-dimethylbenzofuran-2-carboxamide] | superior cytotoxic activity
